Test results: US20100258138A1, “RADIOLABELED 1-ACETATE PET IMAGING FOR RA[…] HEAD AND NECK CANCER” (priority 2006, published 2010)

System: lymph node metastases of head and neck squamous cell carcinoma
Assay: ACE-PET imaging of metastases
Type: in vivo, human
Method: None of the patients suffered from diabetes. […] All patients participating in the study provided informed consent.
Six patients were studied with dedicated PET and four patients were investigated with PET/CT. A 32 minutes dynamic emission scan was performed immediately after intravenous injection of 10 MBq/kg body weight ACE. The scan time was 12×5s, 6×10s, 4×30s, 4×60s, 2×120s and 4×300s. Frame 30 (17-22 minutes after injection) generally provided the best image quality with highest tumor to background ratio and was therefore chosen for subsequent data analysis.
Isoactivity pixel value=(MPVtumor+APVbackground)×50%

C[11C](=O)O [ACE, ^11C-acetate]
lymph node metastases detected by ACE-PET (21 metastatic lesions in seven patients): 20/21
ACE-PET Volumes (cc) (individual metastasis, 50% threshold isoactivity delineation): 2.2 cc and 1.8 cc (3×) and 1.9 cc and 101.0 cc and 1.4 cc (2×) and 1.5 cc (2×) and 1.7 cc and 4.6 cc and 3.5 cc and 14.5 cc (2×) and 4.8 cc and 1.1 cc and 1.6 cc and 0.8 cc and 1.2 cc
median volumes of lymph node metastases drawn by ACE (median±interquartile): 2.9±10.3 cc
volumes of metastases larger drawn by ACE compared to FDG (p=0.005): 23%

Values joined by “and” are separate entries in the source; they are usually repeats but may differ in a detail not shown here. Identical values can stand only once.
